Data source: PubChem BioAssay AID686943 (Drosophila RNAi Screening Center, 2013)

Screen: 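Search across the genome for regulators of signalling from receptor tyrosine kinase to ERK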 (primary screen)
System: Drosophila S2R+ haemocyte-like cells expressing YFP-tagged ERK (Rolled)
Knock-down reagent: long dsRNA against Drosophila genes
Conditions: insulin stimulation versus unstimulated cells; dose and duration not given
Measurement: 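Antibody staining for doubly phosphorylated ERK divided by ERK-YFP signal, as plate z-scores, in insulin-treated and untreated cells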
Scale: replicate 1, z-score of dpERK with insulin: higher = more active ERK per ERK-YFP after insulin
The deposit covers about 23,000 reagents; below is a random part of those with a known target gene and a result. 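Extra replicates exist only for a retested subset of genes; insulin dose and duration not given; both raised and lowered dpERK matter.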 A plus sign joins genes that one reagent is predicted to hit. Further read-outs or replicates are left out here. Reagent sequences are not shown. Not given: the amount of reagent, the time to read-out.

replicate 1, z-score of dpERK with insulin, by target gene and reagent
Wnt2 (Wnt oncogene analog 2): DRSC05160 -0.33; DRSC07574 -0.21
Setx (Senataxin): DRSC10859 0.36
ebo (ellipsoid body open): DRSC18787 0.9
Egfrap (EGFR adaptor protein): DRSC09963 0.06; DRSC09964 1.04
CG6005: DRSC15945 0.13
CG15506: DRSC15047 -0.84
Pfk (Phosphofructokinase): DRSC07506 0.78
CG32719: DRSC17525 0.87
fru (fruitless): DRSC16951 -1.18; DRSC16952 -6.49; DRSC16953 1.08; DRSC21600 -6.05
GCS2beta (Glucosidase 2 beta subunit): DRSC02960 1.15
Or63a (Odorant receptor 63a): DRSC08681 0.44
lncRNA:sphinx (long non-coding RNA:sphinx): DRSC17199 -0.34
CG17233: DRSC10259 0.03
Atg1 (Autophagy-related 1): DRSC09809 0.18; DRSC09810 0.76
Cep89 (Centrosomal protein 89kDa): DRSC07110 -0.1
CG2162: DRSC08557 -1.3
Invadolysin: DRSC15527 0.19

5 of these entries, set out differently:
| Target gene | dsRNA | replicate 1, z-score of dpERK with insulin |
| --- | --- | --- |
| fru (fruitless) | DRSC16951 | -1.18 |
| fru (fruitless) | DRSC16952 | -6.49 |
| fru (fruitless) | DRSC16953 | 1.08 |
| fru (fruitless) | DRSC21600 | -6.05 |
| GCS2beta (Glucosidase 2 beta subunit) | DRSC02960 | 1.15 |

Continued.
replicate 1, z-score of dpERK with insulin, by target gene and reagent
NfI (Nuclear factor I): DRSC17158 0.2
RpL34b (Ribosomal protein L34b): DRSC16475 -0.35
ppk17 (pickpocket 17): DRSC02252 0.25
CenB1A (Centaurin beta 1A): DRSC16923 1.87
MTPAP (mitochondrial poly(A) polymerase): DRSC18585 -0.12
AstCC (Allatostatin double C): DRSC02404 0.07
Adss (Adenylosuccinate synthetase): DRSC14162 -0.07
CG30373: DRSC05081 0.55
CG43335: DRSC15764 0.08; DRSC22671 0.33
Cont (Contactin): DRSC12149 0.03
dnr1 (defense repressor 1): DRSC03948 0.13; DRSC04122 0.49
CG15572: DRSC18060 0.26
CG17129: DRSC08508 -0.3
Vtld + CG42529: DRSC10102 0.74
mats (mob as tumor suppressor): DRSC13562 1.76; DRSC14702 0.85
Wdr82 (WD repeat domain 82): DRSC02595 0.61; DRSC21723 -0.49
CG43341: DRSC05055 0.26
GABPI (beta4GalNAcTB pilot): DRSC00494 -0.48
CG6462: DRSC10641 -0.17
Npc2d (Niemann-Pick type C-2d): DRSC14551 0.41
Hus1-like: DRSC12353 0.52
asp (abnormal spindle): DRSC16903 0.17
SPE (Spatzle-Processing Enzyme): DRSC15135 -0.78
CG10936: DRSC05669 0.31; DRSC05670 0.9; DRSC06018 0.95
pzg (putzig): DRSC11848 -1.97
CG17298: DRSC15221 1.15
CG1137: DRSC12529 0.26
CG42360: DRSC04224 -0.19
